According to PubChem BioAssay AID1488 (Vanderbilt High Throughput Screening Facility, 2009):
In all, about 1,700 compounds went through this assay and about 310 (18%) were called active. This list was built around the results that the source calls inconclusive (neither active nor inactive); the mix of calls is not that of the screen.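 How the source made its calls: active means fluorescence change differs from the solvent-only DMSO control mean at a set confidence level in both duplicate runs; inconclusive means differs from solvent-only control mean in just one of two runs; inactive means the rest.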

Amino acid sequences for entries named in this document (tags omitted). A change or cut given only in a name is not applied to a line headed by its entry.
UniProt P08482: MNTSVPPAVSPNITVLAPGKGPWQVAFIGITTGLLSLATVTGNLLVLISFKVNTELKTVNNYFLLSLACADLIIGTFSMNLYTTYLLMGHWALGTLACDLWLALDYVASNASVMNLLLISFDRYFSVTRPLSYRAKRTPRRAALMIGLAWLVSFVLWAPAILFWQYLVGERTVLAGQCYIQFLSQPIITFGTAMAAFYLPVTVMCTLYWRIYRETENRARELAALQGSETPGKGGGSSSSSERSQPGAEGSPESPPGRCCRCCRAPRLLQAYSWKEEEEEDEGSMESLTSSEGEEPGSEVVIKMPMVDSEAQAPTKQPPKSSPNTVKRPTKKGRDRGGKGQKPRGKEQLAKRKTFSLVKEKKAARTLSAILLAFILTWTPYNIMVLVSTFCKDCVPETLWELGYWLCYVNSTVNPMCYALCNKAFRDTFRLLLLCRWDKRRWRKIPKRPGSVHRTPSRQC

biological target: Muscarinic acetylcholine receptor M1 (Rattus norvegicus) (UniProt P08482); test: rat M1 muscarinic receptor agonists, confirmation, CHO-M1 cells, Fluo-4 calcium, duplicate retest (AID 1488); conditions: Fluo-4 calcium fluorescence, agonist mode, at 10 µM, actives lie on both sides;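 further: an EC20 dose of acetylcholine follows compound addition during the same imaging run; raw fluorescence intensity difference in instrument units with no normalization to controls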

SMILES | fluorescence change (max-min)
CCN1C(=O)c2cccc3c(NC(=O)c4ccc5c(c4)OCCO5)ccc1c23 | inactive: 2.75
O=C(c1cc(-c2ccncc2)nc2ccc(Cl)cc12)N1CCN(C(=O)C2CCCO2)CC1 (stereo not drawn) | inactive: -28.9
COC(=O)c1cccc(S(=O)(=O)N2CCC(NC(=O)NC34CC5CC(CC(C5)C3)C4)CC2)c1 | inconclusive: -27.4
Cc1ccccc1S(=O)(=O)Cc1ccc(C(=O)N2CCN(c3cccc(C)c3C)CC2)o1 | inconclusive: -16.5
CCOC(=O)C1CCCN(C(=O)c2ccc(CS(=O)(=O)c3ccc(C)cc3)o2)C1 (stereo not drawn) | active: 261
COc1ccc2c(=O)c(C(=O)NCCc3ccc(OC)c(OC)c3)c[nH]c2c1 | inconclusive: -22.4
O=C(Nc1cccc(-c2cn3cccnc3n2)c1)c1ccc2c(c1)OCO2 | inconclusive: -23.6
C/C(N)=C(/C#N)C(=O)CSc1nc2cc(Cl)ccc2s1 | inactive: -8.67
CCn1c(=O)cc(OCC(=O)Nc2ccccc2C#N)c2ccccc21 | inconclusive: -13.8
CCOC(=O)C1CCN(S(=O)(=O)c2cccc(-c3cn4cccc(C)c4n3)c2)CC1 | inactive: -11.6
Cc1ccccc1CN(c1ccc(C(=O)N2CCCC2)cc1)S(C)(=O)=O | inactive: 16.1
Cc1ccc(N2C(=O)[C@@H]3C(c4ccc(F)cc4)=NO[C@@H]3C2=O)cc1 | inconclusive: -23.5
CCCOc1ccc2ccccc2c1/C=N/n1c(C)nnc1-n1nc(C)cc1C | inconclusive: -19.1
CCOC(=O)COn1c(=O)c(-c2cccs2)[n+]([O-])c2ccccc21 | active: 800
C=CCn1c(=O)c2ccccc2n2c(SCc3nc(N)nc(Nc4ccccc4C)n3)nnc12 | inconclusive: -20.2
CCOC(=O)c1sc2nc(N3CCOCC3)c3c(c2c1N)CCC3 | inconclusive: -20.1
COc1ccc(C2=NO[C@@H]3C(=O)N(C4CCCCC4)C(=O)[C@H]23)cc1OC | inactive: -10.1
Cc1ccc(C(=O)N2CCN(S(C)(=O)=O)C2)cc1 | inconclusive: -23.3
CCOC(=O)c1ccc(-n2c(=O)[nH]c3ccccc3c2=O)cc1 | inconclusive: -14
O=C1C2C3CCCC3=C3CCCC3C2C(=O)N1c1ccc(Cl)cc1 (stereo not drawn) | inconclusive: -21.7
COc1cc(/C=C/C(=O)CC(=O)/C=C/c2ccc(O)c(OC)c2)ccc1O | active: 367
CCOC(=O)N1CCN(C(=O)c2cc(-c3ccc(OCC)cc3)nc3ccccc23)CC1 | inconclusive: -20.1
O=C(Nc1ccc2c(c1)OCCO2)c1ccc(Br)c(S(=O)(=O)N2CCOCC2)c1 | inconclusive: -24.1
CSc1nc2[nH]c3c(c2c2ncnn12)CCCC3 | inconclusive: -28.2
CCOC(=O)Cc1csc(NC(=O)COc2ccc(N(C)S(=O)(=O)c3cccs3)cc2)n1 | inconclusive: 65.9
CCOC(=O)c1cn(-c2ccccc2)nc1-c1ccncc1 | inconclusive: -23.8
CC1(C)NC(=O)N(CC(O)COc2ccccc2C(=O)Nc2ccccc2)C1=O (stereo not drawn) | inconclusive: -21.7

A second format for part of the listing above.
SMILES,fluorescence change (max-min)
CCCOc1ccc2ccccc2c1/C=N/n1c(C)nnc1-n1nc(C)cc1C,inconclusive: -19.1
Cc1ccc(C(=O)N2CCN(S(C)(=O)=O)C2)cc1,inconclusive: -23.3
CSc1nc2[nH]c3c(c2c2ncnn12)CCCC3,inconclusive: -28.2

Following part:

SMILES | fluorescence change (max-min)
CC1CCCN(C/C(O)=C(\C#N)c2nc3ccccc3[nH]2)C1 (stereo not drawn) | inconclusive: -19.4
CCOC(=O)c1cc2c(=O)n3cccc(C)c3nc2n(Cc2ccco2)c1=NC(=O)c1cccnc1 | active: 180
CC(=O)N1CCc2cc(S(=O)(=O)CCC(=O)Nc3c(C)n(C)n(-c4ccccc4)c3=O)ccc21 | inconclusive: -15.4
COc1ccc(-c2c3c(=O)n(C)c(=O)n(C)c3cn2-c2ccccc2)cc1 | inconclusive: -21.3
CN1C(=O)C(O)(CC(=O)c2ccccn2)c2cc(Br)ccc21 (stereo not drawn) | inconclusive: -25.7
COc1ccc(C2C(C(C)=O)=C(C)N=c3s/c(=C\c4cc(C)n(C)c4C)c(=O)n32)c(OC)c1 (stereo not drawn) | active: 458
CCOC(=O)C1CCN(C(=O)C2c3ccccc3C(=O)N(C)C2c2ccc(OC)cc2)CC1 (stereo not drawn) | inconclusive: -16.2
O=c1[nH]c(Nc2ccccc2)cc2ccccc12 | inconclusive: 68
CCN(C(=O)c1ccc(C(C)(C)C)cc1)c1nnc(Cn2nnc3ccccc32)s1 | inconclusive: -20.4
Cc1cc(N)n(-c2nc(-c3cccnc3)nc3ccccc23)n1 | inconclusive: -32.2
COc1ccc(C2C=C(c3ccccc3)Nc3ncnn32)cc1 (stereo not drawn) | active: 85.6
COc1ccc(-n2c(O)c(/C=N/n3cnnc3)c3ccccc3c2=O)cc1 | active: 164
CN(C)CCNC(=O)C12CC3(C)CC(C)(CC(C)(C3)C1)C2 | inconclusive: -17.2
COCCNC(=O)C(c1ccc(C)o1)N(CC1CCCO1)C(=O)Cn1nnc2ccccc21 (stereo not drawn) | inconclusive: -21
COc1cc(C2C(C(=O)c3ccco3)=C(O)C(=O)N2CCc2ccccc2)ccc1O (stereo not drawn) | inactive: -9.39
Cc1oc(-c2ccc(Cl)cc2)nc1CN1CCC(C(=O)N2CCc3ccccc3C2)CC1 | inconclusive: -23.4
CC(C)(CC(=O)N1CCN(c2ccc(Cl)cc2)CC1)CC1=NS(=O)(=O)c2ccccc2N1 | inconclusive: -18.5
O=C(NCC(=O)N(c1ccccc1)C(C(=O)NCC1CCCO1)c1ccccc1)c1ccco1 (stereo not drawn) | inconclusive: -18.2
O=C(Nc1ccc(S(=O)(=O)N2CCOCC2)cc1)C1COc2ccccc2O1 (stereo not drawn) | inconclusive: -21.6
O=c1cc(CNC2CCCCC2)c2ccccc2[nH]1 | inconclusive: -20.7
CCN=C(NCC)SC1CC(=O)N(c2ccccc2)C1=O (stereo not drawn) | inactive: -10.6
COc1cccc(C(=O)N2CCN(C3CCC(c4ccccc4)CC3)CC2)c1OC (stereo not drawn) | inconclusive: 57.6
Cc1nnc(N2C(=O)c3oc4ccccc4c(=O)c3C2c2ccco2)s1 (stereo not drawn) | inconclusive: -16.6
COc1ccc(N(C(=O)c2cccnc2)S(=O)(=O)c2ccc3c(c2)n(C)c(=O)n3C)cc1 | inconclusive: -20.8
CC(C)Oc1cccc(-c2cc(C(=O)N3CCN(S(C)(=O)=O)CC3)c3ccccc3n2)c1 | inconclusive: -20.2
Cc1noc(C)c1COC(=O)c1cccc(S(=O)(=O)N2CCCCCC2)c1 | inactive: -16.8
